No constants are given. Whether binding was seen depends on the method and setting. Binding seen in cells or lysates may run through a third protein. Some results given as binding are weak or reduced against the parent protein; the word gives no strength.
Target: endogenous NSUN2 of ESCC cells (human (endogenous in ESCC cells)) (UniProt Q08J23)
Assay: co-IP; endogenous STUB1 and NSUN2 from ESCC cell lysate; also in ESCC cells with TTPAL knockdown or TTPAL overexpression; IP lysis buffer, antibody overnight at 4 °C, three washes, Western blot

Amino acid sequences for entries named in this document (tags omitted).
UniProt Q08J23: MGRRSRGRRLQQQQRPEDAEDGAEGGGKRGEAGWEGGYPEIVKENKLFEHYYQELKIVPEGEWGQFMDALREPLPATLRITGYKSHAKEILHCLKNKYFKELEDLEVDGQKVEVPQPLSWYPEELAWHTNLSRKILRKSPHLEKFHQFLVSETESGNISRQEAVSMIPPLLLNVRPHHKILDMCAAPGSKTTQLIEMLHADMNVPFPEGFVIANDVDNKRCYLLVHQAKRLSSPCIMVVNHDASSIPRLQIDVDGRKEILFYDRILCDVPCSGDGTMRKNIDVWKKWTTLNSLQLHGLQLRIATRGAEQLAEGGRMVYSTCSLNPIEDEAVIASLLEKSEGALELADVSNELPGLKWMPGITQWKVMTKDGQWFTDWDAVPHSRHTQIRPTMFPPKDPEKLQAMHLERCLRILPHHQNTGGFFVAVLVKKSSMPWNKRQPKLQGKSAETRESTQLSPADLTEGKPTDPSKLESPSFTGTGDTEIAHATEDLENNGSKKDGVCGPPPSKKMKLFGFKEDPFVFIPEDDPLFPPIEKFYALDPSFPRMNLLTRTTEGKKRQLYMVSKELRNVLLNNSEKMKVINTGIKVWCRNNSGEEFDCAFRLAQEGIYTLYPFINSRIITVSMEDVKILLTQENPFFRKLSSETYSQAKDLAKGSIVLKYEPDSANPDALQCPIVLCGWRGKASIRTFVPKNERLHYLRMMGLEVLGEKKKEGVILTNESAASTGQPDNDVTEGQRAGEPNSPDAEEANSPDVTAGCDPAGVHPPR
UniProt Q9UNE7: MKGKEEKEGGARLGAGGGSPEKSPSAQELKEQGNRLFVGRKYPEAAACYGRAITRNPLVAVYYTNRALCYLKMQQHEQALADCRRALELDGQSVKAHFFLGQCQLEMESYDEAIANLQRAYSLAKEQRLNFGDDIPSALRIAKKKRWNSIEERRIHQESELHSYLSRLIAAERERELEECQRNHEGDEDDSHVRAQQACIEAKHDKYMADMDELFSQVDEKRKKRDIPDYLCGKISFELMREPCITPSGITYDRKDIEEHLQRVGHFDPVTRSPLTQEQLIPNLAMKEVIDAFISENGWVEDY

endogenous STUB1 of ESCC cells (from UniProt Q9UNE7 1-303)
binding: binds
